# Assay results as given in article PMC5996148.
# Some of the results follow.
# Assays:
# Experiment in all cases: protein microarray (ProtoArray v5.0), streptavidin-Alexa Fluor 647
# Conditions in all cases: 3'-biotin; 20 mM Tris (pH 7.5), 5 mM MgCl2, 100 mM KCl, 0.1% Tween-20, A/T-rich and random oligonucleotide blockers; temperature not stated; high values mean tight binding
# LOC554203 (human) = system: LOC554203 (human)
# LOC554207 (human) = system: LOC554207 (human)
# LOC57228 (human) = system: LOC57228 (human)
# LOXL2 (human) = system: LOXL2 (human)
# LPXN (human) = system: LPXN (human)
# LRRC14 (human) = system: LRRC14 (human)
# LRRC48 (human) = system: LRRC48 (human)
# LRRIQ2 (human) = system: LRRIQ2 (human)
# LSM8 (human) = system: LSM8 (human)
# LTB (human) = system: LTB (human)
# LXN (human) = system: LXN (human)
# LY6E (human) = system: LY6E (human)
# LY6G6C (human) = system: LY6G6C (human)
# LYPD1 (human) = system: LYPD1 (human)
# LYPLAL1 (human) = system: LYPLAL1 (human)
# LYSMD2 (human) = system: LYSMD2 (human)
# LYSMD3 (human) = system: LYSMD3 (human)
# LYZL6 (human) = system: LYZL6 (human)
# LZIC (human) = system: LZIC (human)
# [1] = system: Lactoylglutathione lyase (human)
sequence,measurement,setting,value
GGTGACAGGGGTATGGGGAGGGG [G4-2 biotinylated (Ct1)],binding signal,LOC554203 (human),-0.398 z-score
same,binding signal,LOC554207 (human),-0.36 z-score
same,binding signal,LOC57228 (human),5.81 z-score
same,binding signal,LOXL2 (human),-0.358 z-score
same,binding signal,LPXN (human),-0.391 z-score
same,binding signal,LRRC14 (human),-0.369 z-score
same,binding signal,LRRC48 (human),-0.381 z-score
same,binding signal,LRRIQ2 (human),-0.386 z-score
same,binding signal,LSM8 (human),-0.376 z-score
same,binding signal,LTB (human),-0.385 z-score
same,binding signal,LXN (human),-0.377 z-score
same,binding signal,LY6E (human),-0.371 z-score
same,binding signal,LY6G6C (human),-0.384 z-score
same,binding signal,LYPD1 (human),-0.37 z-score
same,binding signal,LYPLAL1 (human),-0.384 z-score
same,binding signal,LYSMD2 (human),-0.394 z-score
same,binding signal,LYSMD3 (human),-0.385 z-score
same,binding signal,LYZL6 (human),-0.382 z-score
same,binding signal,LZIC (human),-0.399 z-score
same,binding signal,[1],-0.374 z-score

# Some of the entries so far, tab-delimited.
sequence	measurement	setting	value
GGTGACAGGGGTATGGGGAGGGG [G4-2 biotinylated (Ct1)]	binding signal	LRRC48 (human)	-0.381 z-score
same	binding signal	LYSMD2 (human)	-0.394 z-score
